Results as given in US8026262B2, “Chemical compounds” (GlaxoSmithKline LLC, priority 2006, dated 2011).
Some entries share one result that the patent states for a list of compounds.

Target: T1, human AR (Homo sapiens, UniProt P10275)
T1 sequence (P10275 560-920 limits assumed): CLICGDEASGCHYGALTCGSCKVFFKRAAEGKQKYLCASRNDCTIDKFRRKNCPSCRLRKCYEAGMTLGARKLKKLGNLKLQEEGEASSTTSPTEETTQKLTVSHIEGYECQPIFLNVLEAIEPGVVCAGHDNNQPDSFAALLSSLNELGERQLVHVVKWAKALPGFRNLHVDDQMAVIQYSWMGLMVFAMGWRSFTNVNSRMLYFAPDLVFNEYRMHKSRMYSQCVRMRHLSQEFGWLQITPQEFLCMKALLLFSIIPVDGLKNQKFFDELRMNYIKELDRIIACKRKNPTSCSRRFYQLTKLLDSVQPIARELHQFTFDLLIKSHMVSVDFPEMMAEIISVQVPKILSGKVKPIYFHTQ
Assay: AR functional assay (agonist mode), MMTV luciferase reporter in transfected CV-1 cells
Format: cell-based
Details: CV-1 cells transfected with human AR and MMTV luciferase, values said to be exemplary only

Compound	pIC50 in the agonist mode of the AR functional assay
Cc1noc(C(F)(F)F)c1-c1nc(Cn2ccc3c(C(F)(F)F)c(C#N)ccc32)no1 [Example 73, 1-({5-[3-Methyl-5-(trifluoromethyl)-4-isoxazolyl]-1,2,4-oxadiazol-3-yl}methyl)-4-(trifluoromethyl)-1H-indole-5-carbonitrile]	≥ 5.01
N#Cc1cccc(-c2nc(Cn3ccc4c(C(F)(F)F)c(C#N)ccc43)no2)c1 [Example 74, 1-{[5-(3-Cyanophenyl)-1,2,4-oxadiazol-3-yl]methyl}-4-(trifluoromethyl)-1H-indole-5-carbonitrile]	≥ 5.01
Cc1ccc(-c2nc(Cn3ccc4c(C(F)(F)F)c(C#N)ccc43)no2)cc1Br [Example 75, 1-{[5-(3-Bromo-4-methylphenyl)-1,2,4-oxadiazol-3-yl]methyl}-4-(trifluoromethyl)-1H-indole-5-carbonitrile]	≥ 5.01
CC(=O)c1ccc(-c2nc(Cn3ccc4c(C(F)(F)F)c(C#N)ccc43)no2)cc1 [Example 76, 1-{[5-(4-Acetylphenyl)-1,2,4-oxadiazol-3-yl]methyl}-4-(trifluoromethyl)-1H-indole-5-carbonitrile]	≥ 5.01
N#Cc1ccc2c(ccn2Cc2noc(-c3cccc(C(F)(F)F)c3Cl)n2)c1C(F)(F)F [Example 77, 1-({5-[2-Chloro-3-(trifluoromethyl)phenyl]-1,2,4-oxadiazol-3-yl}methyl)-4-(trifluoromethyl)-1H-indole-5-carbonitrile]	≥ 5.01
N#Cc1ccc2c(ccn2Cc2noc(-c3ccc(F)c(Br)c3)n2)c1C(F)(F)F [Example 78, 1-{[5-(3-Bromo-4-fluorophenyl)-1,2,4-oxadiazol-3-yl]methyl}-4-(trifluoromethyl)-1H-indole-5-carbonitrile]	≥ 5.01
N#Cc1ccc2c(ccn2Cc2noc(-c3cccc(C(F)(F)F)c3F)n2)c1C(F)(F)F [Example 79, 1-({5-[2-Fluoro-3-(trifluoromethyl)phenyl]-1,2,4-oxadiazol-3-yl}methyl)-4-(trifluoromethyl)-1H-indole-5-carbonitrile]	≥ 5.01
N#Cc1ccc(-c2nc(Cn3ccc4c(C(F)(F)F)c(C#N)ccc43)no2)cc1 [Example 80, 1-{[5-(4-Cyanophenyl)-1,2,4-oxadiazol-3-yl]methyl}-4-(trifluoromethyl)-1H-indole-5-carbonitrile]	≥ 5.01
N#Cc1ccc2c(ccn2Cc2noc(-c3ccc(Cl)c(Br)c3)n2)c1C(F)(F)F [Example 81, 1-{[5-(3-Bromo-4-chlorophenyl)-1,2,4-oxadiazol-3-yl]methyl}-4-(trifluoromethyl)-1H-indole-5-carbonitrile]	≥ 5.01
N#Cc1ccc2c(ccn2Cc2noc(-c3ccc(Cl)c(Cl)c3)n2)c1C(F)(F)F [Example 82, 1-{[5-(3,4-Dichlorophenyl)-1,2,4-oxadiazol-3-yl]methyl}-4-(trifluoromethyl)-1H-indole-5-carbonitrile]	≥ 5.01
N#Cc1ccc2c(ccn2Cc2noc(-c3cccc(Cl)c3)n2)c1C(F)(F)F [Example 84, 1-{[5-(3-Chlorophenyl)-1,2,4-oxadiazol-3-yl]methyl}-4-(trifluoromethyl)-1H-indole-5-carbonitrile]	≥ 5.01
N#Cc1ccc2c(ccn2Cc2noc(-c3cccc(OC(F)(F)F)c3)n2)c1C(F)(F)F [Example 85, 4-(Trifluoromethyl)-1-[(5-{3-[(trifluoromethyl)oxy]phenyl}-1,2,4-oxadiazol-3-yl)methyl]-1H-indole-5-carbonitrile]	≥ 5.01
N#Cc1ccc2c(ccn2Cc2noc(-c3ccc(F)c(F)c3)n2)c1C(F)(F)F [Example 86, 1-{[5-(3,4-Difluorophenyl)-1,2,4-oxadiazol-3-yl]methyl}-4-(trifluoromethyl)-1H-indole-5-carbonitrile]	≥ 5.01
Cc1ccc(-c2nc(Cn3ccc4c(C(F)(F)F)c(C#N)ccc43)no2)cc1O [Example 87, 1-{[5-(3-Hydroxy-4-methylphenyl)-1,2,4-oxadiazol-3-yl]methyl}-4-(trifluoromethyl)-1H-indole-5-carbonitrile]	≥ 5.01
N#Cc1ccc2c(ccn2Cc2noc(-c3cccc(Br)c3)n2)c1C(F)(F)F [Example 88, 1-{[5-(3-Bromophenyl)-1,2,4-oxadiazol-3-yl]methyl}-4-(trifluoromethyl)-1H-indole-5-carbonitrile]	≥ 5.01
N#Cc1ccc2c(ccn2Cc2noc(-c3ccc(Cl)cc3)n2)c1C(F)(F)F [Example 89, 1-{[5-(4-Chlorophenyl)-1,2,4-oxadiazol-3-yl]methyl}-4-(trifluoromethyl)-1H-indole-5-carbonitrile]	≥ 5.01

Compound	pIC50 in the agonist mode of the AR functional assay
N#Cc1ccc2c(ccn2Cc2cscn2)c1C(F)(F)F [Example 91, 1-(1,3-Thiazol-4-ylmethyl)-4-(trifluoromethyl)-1H-indole-5-carbonitrile]	≥ 5.01
N#Cc1ccc2c(ccn2Cc2noc(-c3cccs3)n2)c1C(F)(F)F [Example 92, 1-{[5-(2-Thienyl)-1,2,4-oxadiazol-3-yl]methyl}-4-(trifluoromethyl)-1H-indole-5-carbonitrile]	≥ 5.01
COc1ccc(-c2nc(Cn3ccc4c(C(F)(F)F)c(C#N)ccc43)no2)cc1 [Example 93, 1-({5-[4-(Methyloxy)phenyl]-1,2,4-oxadiazol-3-yl}methyl)-4-(trifluoromethyl)-1H-indole-5-carbonitrile]	≥ 5.01
N#Cc1ccc2c(ccn2CC(F)(F)F)c1C(F)(F)F [Example 94, 1-(2,2,2-Trifluoroethyl)-4-(trifluoromethyl)-1H-indole-5-carbonitrile]	≥ 5.01
CSc1ncccc1-c1nc(Cn2ccc3c(C(F)(F)F)c(C#N)ccc32)no1 [Example 95, 1-({5-[2-(Methylthio)-3-pyridinyl]-1,2,4-oxadiazol-3-yl}methyl)-4-(trifluoromethyl)-1H-indole-5-carbonitrile]	≥ 5.01
N#Cc1ccc2c(ccn2Cc2noc(-c3ccccc3)n2)c1C(F)(F)F [Example 96, 1-[(5-Phenyl-1,2,4-oxadiazol-3-yl)methyl]-4-(trifluoromethyl)-1H-indole-5-carbonitrile]	≥ 5.01
Cc1noc(C)c1-c1nc(Cn2ccc3c(C(F)(F)F)c(C#N)ccc32)no1 [Example 98, 1-{[5-(3,5-Dimethyl-4-isoxazolyl)-1,2,4-oxadiazol-3-yl]methyl}-4-(trifluoromethyl)-1H-indole-5-carbonitrile]	≥ 5.01
COc1ccccc1-c1nc(Cn2ccc3c(C(F)(F)F)c(C#N)ccc32)no1 [Example 99, 1-({5-[2-(Methyloxy)phenyl]-1,2,4-oxadiazol-3-yl}methyl)-4-(trifluoromethyl)-1H-indole-5-carbonitrile]	≥ 5.01
N#Cc1ccc2c(ccn2Cc2noc(-c3ccc(C(F)(F)F)cc3)n2)c1C(F)(F)F [Example 100, 4-(Trifluoromethyl)-1-({5-[4-(trifluoromethyl)phenyl]-1,2,4-oxadiazol-3-yl}methyl)-1H-indole-5-carbonitrile]	≥ 5.01
N#Cc1ccc2c(ccn2Cc2nc(-c3ccccn3)no2)c1C(F)(F)F [Example 102, 1-{[3-(2-Pyridinyl)-1,2,4-oxadiazol-5-yl]methyl}-4-(trifluoromethyl)-1H-indole-5-carbonitrile]	≥ 5.01
N#Cc1ccc2c(ccn2Cc2nc(-c3cc(C(F)(F)F)cc(C(F)(F)F)c3)no2)c1C(F)(F)F [Example 103, 1-({3-[3,5-bis(Trifluoromethyl)phenyl]-1,2,4-oxadiazol-5-yl}methyl)-4-(trifluoromethyl)-1H-indole-5-carbonitrile]	≥ 5.01
N#Cc1ccc2c(ccn2Cc2nnc(-c3ccc(F)cc3F)o2)c1C(F)(F)F [Example 104, 1-{[5-(2,4-Difluorophenyl)-1,3,4-oxadiazol-2-yl]methyl}-4-(trifluoromethyl)-1H-indole-5-carbonitrile]	≥ 5.01
N#Cc1ccc2c(ccn2Cc2nnc(-c3ccccn3)o2)c1C(F)(F)F [Example 105, 1-{[5-(2-Pyridinyl)-1,3,4-oxadiazol-2-yl]methyl}-4-(trifluoromethyl)-1H-indole-5-carbonitrile]	≥ 5.01
N#Cc1ccc2c(ccn2Cc2nnc(-c3cncc(Br)c3)o2)c1C(F)(F)F [Example 106, 1-{[5-(5-Bromo-3-pyridinyl)-1,3,4-oxadiazol-2-yl]methyl}-4-(trifluoromethyl)-1H-indole-5-carbonitrile]	≥ 5.01
N#Cc1ccc2c(ccn2Cc2nnc(-c3ccc(Br)o3)o2)c1C(F)(F)F [Example 107, 1-{[5-(5-Bromo-2-furanyl)-1,3,4-oxadiazol-2-yl]methyl}-4-(trifluoromethyl)-1H-indole-5-carbonitrile]	≥ 5.01
Cc1nnsc1-c1nnc(Cn2ccc3c(C(F)(F)F)c(C#N)ccc32)o1 [Example 108, 1-{[5-(4-Methyl-1,2,3-thiadiazol-5-yl)-1,3,4-oxadiazol-2-yl]methyl}-4-(trifluoromethyl)-1H-indole-5-carbonitrile]	≥ 5.01
